The exact form of at least one protein or probe is not confirmed. Results from cells or extracts need not show a direct contact.
Columns and labels:
[1] = biological target: c-Jun (Homo sapiens (SW1353 chondrosarcoma cells)) (UniProt P05412); assay: EMSA supershift; conditions: nuclear extract of sheared SW1353 cells, anti-c-Jun, 5 mM MgCl2, poly(dI-dC); EMSA: binding buffer with 50 ng poly(dI-dC), 2.5% glycerol, 0.05% NP-40, 5 mM MgCl2, 0.25 mg BSA, 20 fmol probe, 1-2 ug nuclear extract, 30 min on ice; protein in an extract; label: 5'-biotin
[2] = biological target: p65 (NF-kB) (Homo sapiens (SW1353 chondrosarcoma cells)) (UniProt Q04206); assay: EMSA supershift; conditions: nuclear extract of sheared SW1353 cells, anti-p65, 5 mM MgCl2, poly(dI-dC); EMSA: binding buffer with 50 ng poly(dI-dC), 2.5% glycerol, 0.05% NP-40, 5 mM MgCl2, 0.25 mg BSA, 20 fmol probe, 1-2 ug nuclear extract, 30 min on ice; protein in an extract; label: 5'-biotin

Sequences of proteins named here, by UniProt entry; tags and fusion partners are left off.
UniProt P05412, whole entry: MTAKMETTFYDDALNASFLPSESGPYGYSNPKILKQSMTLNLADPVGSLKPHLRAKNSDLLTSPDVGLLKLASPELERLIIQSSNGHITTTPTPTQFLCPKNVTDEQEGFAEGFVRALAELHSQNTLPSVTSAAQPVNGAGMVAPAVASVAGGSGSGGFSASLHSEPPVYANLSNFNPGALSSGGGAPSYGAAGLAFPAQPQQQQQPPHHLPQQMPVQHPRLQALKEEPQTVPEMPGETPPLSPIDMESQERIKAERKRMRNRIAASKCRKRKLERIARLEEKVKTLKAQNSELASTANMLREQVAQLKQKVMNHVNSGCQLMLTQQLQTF
UniProt Q04206, whole entry: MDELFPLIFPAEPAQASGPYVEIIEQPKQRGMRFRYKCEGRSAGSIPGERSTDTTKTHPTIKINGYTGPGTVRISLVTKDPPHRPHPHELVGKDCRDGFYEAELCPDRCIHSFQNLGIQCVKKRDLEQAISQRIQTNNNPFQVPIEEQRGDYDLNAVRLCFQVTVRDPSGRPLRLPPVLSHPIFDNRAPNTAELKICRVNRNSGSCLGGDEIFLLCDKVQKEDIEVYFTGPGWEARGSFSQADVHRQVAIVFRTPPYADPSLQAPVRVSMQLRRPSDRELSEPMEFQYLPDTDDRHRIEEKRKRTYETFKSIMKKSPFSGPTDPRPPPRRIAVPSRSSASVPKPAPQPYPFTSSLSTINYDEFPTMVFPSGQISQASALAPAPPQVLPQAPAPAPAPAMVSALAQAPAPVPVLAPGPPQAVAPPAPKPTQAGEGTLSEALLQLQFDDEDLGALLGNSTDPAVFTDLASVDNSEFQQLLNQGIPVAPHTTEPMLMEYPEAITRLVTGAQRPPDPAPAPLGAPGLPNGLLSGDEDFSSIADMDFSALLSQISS

Sequence | binding result [1] | binding result [2]
ATGAGTCACCT (double strand) [c-Jun (AP-1) probe, MMP-7 promoter (-68/-58)] | binds | –
GGAAATGCCTT (double strand) [NF-kB probe, MMP-7 promoter (-1507/-1498)] | – | binds

From PMC4496208
